## Results from one PubChem assay

The results are deposited in PubChem (AID1224904; Broad Institute, 2016).

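293T-iDUX4 cells carrying a ZSCAN4-driven Gaussia luciferase and a tet-on Italica luciferase control; the gap between the two luminescence signals is read after 24 h. The test concentration is not given here. Percent difference between the Gaussia and Italica channels; more negative values mean more selective suppression of the DUX4 reporter, and higher values mean less activity.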

Values are in %. How 0% and 100% were set is not given here. Common to all entries: measured here: selective DUX4 reporter inhibition. Part of the compounds only, not a random draw; the main read-out is not listed here.

CS(=O)(=O)Nc1ccc2c(c1)[C@H]1C[C@H](CC(=O)NCc3ccc(Oc4ccccc4)cc3)O[C@H](CO)[C@H]1O2 gave Gaussia minus Italica difference -8.84%.
COc1ccc(S(=O)(=O)N(C)C[C@@H]2OCc3ccccc3-c3c(n(C)c4ccccc34)C(=O)N([C@@H](C)CO)C[C@@H]2C)cc1 gave Gaussia minus Italica difference 2.168%.
COc1cccc(-c2ccc3c(c2)[C@H]2[C@H](CCN2C(=O)C2CCCCC2)[C@H](CO)N3)c1 gave Gaussia minus Italica difference 13.86%.
O=C(C[C@@H]1CC[C@@H]2[C@H](COC[C@H](O)CN2Cc2ccccc2F)O1)N[C@H]1CCN(Cc2ccccc2)C1 gave Gaussia minus Italica difference -1.658%.
COc1cccc(CN2CCC3(CC2)CN(C(=O)Nc2ccc(F)cc2)[C@H](CO)c2c3c3ccc(OC)cc3n2C)c1 gave Gaussia minus Italica difference 24.6%.
O=C(NC1CCCC1)N1CCCCN2[C@H](CO)[C@H](c3ccc(-c4ccccc4)cc3)[C@H]2C1 gave Gaussia minus Italica difference -6.652%.
COc1cccc(-c2ccc([C@H]3[C@@H](CO)N4CCCCN(CC5CC5)C[C@H]34)cc2)c1 gave Gaussia minus Italica difference -15.61%.
CCCC(=O)Nc1ccc2c(c1)C(=O)N(C)C[C@H](OC)[C@H](C)CN(Cc1ccc(F)cc1)[C@@H](C)CO2 gave Gaussia minus Italica difference -19.46%.
O=C(c1cnccn1)N1CC(=O)N2[C@H](CO)[C@H](c3ccc(C#CCC4CCCC4)cc3)[C@H]2C1 gave Gaussia minus Italica difference 5.406%.
O=C(C[C@H]1CC[C@H]2[C@@H](COC[C@@H](O)CN2Cc2ccc(Oc3ccccc3)cc2)O1)N1CCCCC1 gave Gaussia minus Italica difference 2.172%.
CCCNC(=O)[C@@H]1[C@@H](CO)[C@@H]2Cn3c(ccc(C4=CCCCC4)c3=O)[C@@H]2N1Cc1ccccc1F gave Gaussia minus Italica difference -4.722%.
COc1ccc(NC(=O)Nc2ccc3c(c2)[C@@H]2C[C@H](CC(=O)NCc4ccc(-c5ccccc5)cc4)O[C@@H](CO)[C@@H]2O3)cc1 gave Gaussia minus Italica difference -17.42%.
CCCNC(=O)N1[C@H](C#N)[C@@H](c2ccccc2C2=CCCCC2)[C@@H]1CO gave Gaussia minus Italica difference -4.476%.
COc1ccc2c3c([nH]c2c1)[C@H](CO)N(Cc1cccc(F)c1)CC31CCN(C(C)=O)CC1 gave Gaussia minus Italica difference -1.514%.
O=C(C[C@H]1CC[C@@H]2[C@H](COC[C@@H](O)CN2Cc2ccc(Oc3ccccc3)cc2)O1)Nc1nccs1 gave Gaussia minus Italica difference -6.026%.
C/C=C/c1ccc([C@@H]2[C@@H](CO)N3CCCCN(S(=O)(=O)c4cccc(C)c4)C[C@@H]23)cc1 gave Gaussia minus Italica difference -10.99%.
O=C(Nc1ccc(F)cc1)N1CCCCN2[C@H](CO)[C@@H](c3ccc(-c4cccc(F)c4)cc3)[C@H]2C1 gave Gaussia minus Italica difference 16.33%.
O=C(C1CCC1)N1CC2(C1)[C@H](c1ccccc1)[C@H](CO)N2Cc1ccc(Cl)cc1 gave Gaussia minus Italica difference -6.299%.
Cc1cccc(-c2ccc([C@@H]3[C@@H](CO)N4C(=O)CN(C(=O)Cc5ccccn5)C[C@@H]34)cc2)c1 gave Gaussia minus Italica difference -4.256%.
C[C@@H](NC(=O)C[C@@H]1CC[C@H](NC(=O)Cc2ccccn2)[C@H](CO)O1)c1ccccc1 gave Gaussia minus Italica difference -5.813%.
O=C(C[C@@H]1CC[C@@H]2[C@H](COC[C@H](O)CN2CCc2ccccc2)O1)NCc1ccc(Oc2ccccc2)cc1 gave Gaussia minus Italica difference -16.83%.
O=C(CC1CC1)N1CC[C@@H]2[C@H]1c1cc(-c3ccccc3)ccc1N[C@@H]2CO gave Gaussia minus Italica difference -2.012%.
O=C(C[C@@H]1C[C@H]2c3cc(NC(=O)Nc4ccc(C(F)(F)F)cc4)ccc3O[C@H]2[C@H](CO)O1)NCc1cccnc1 gave Gaussia minus Italica difference -8.628%.
O=C(Nc1cc(F)ccc1F)N[C@@H]1CC[C@@H](CCn2cc(C3CCCCC3)nn2)O[C@@H]1CO gave Gaussia minus Italica difference -13.9%.
COc1ccc(S(=O)(=O)N2CC[C@H]3[C@H](CO)Nc4ccc(-c5cccc(C#N)c5)cc4[C@H]32)cc1 gave Gaussia minus Italica difference 11.03%.

Some entries from above, unchanged:

compound,Gaussia minus Italica difference (%)
C/C=C/c1ccc([C@@H]2[C@@H](CO)N3CCCCN(S(=O)(=O)c4cccc(C)c4)C[C@@H]23)cc1,-10.99
COc1cccc(-c2ccc3c(c2)[C@H]2[C@H](CCN2C(=O)C2CCCCC2)[C@H](CO)N3)c1,13.86
O=C(C[C@@H]1CC[C@@H]2[C@H](COC[C@H](O)CN2CCc2ccccc2)O1)NCc1ccc(Oc2ccccc2)cc1,-16.83